In US7439226B2 (The United States of America as represented by the …, priority 2003, dated 2008):

Experiment: general procedure: Fmoc solid-phase peptide synthesis; Fmoc-Gly-Rink acid resin (0.4 mmol/g); HBTU/HOBt
Details: cyclisation step, from the monocyclic peptide material

PEPTIDE1{G.R.[AllylGly].T.K.S.I.P.P.I.[AllylGly].F.P.D}$PEPTIDE1,PEPTIDE1,1:R1-14:R2|PEPTIDE1,PEPTIDE1,3:R3-11:R3$$$V2.0
cyclisation yield: 52%

Some peptides are written in HELM: one residue between dots, names in brackets for other building blocks, links after the first $.
